Hit rate of the full screen: of about 400,000 compounds, about 13,000 (3.2%) were called active. Inconclusive means that the source gave no clear call. Such entries were picked first, then a sample of the others. Calls follow the shape of the dose curve; as a rule, active = well fitted cell-killing curve with a large enough effect; inconclusive = small, poorly fitted or top-dose-only effect, or effect the other way; inactive = flat fitted curve, though single readings scatter. Potencies of inconclusive entries are doubtful fits and often do not repeat.
Assay: qHTS assay for MDR1-selective chemotherapeutics: Primary screen using the drug-selected MDR subline cells KB-V1; also: nearly all actives have a fitted effect of over 60% in size
Conditions: KB-V1 MDR cells viability, CellTiter-Glo, 72 h; activity change, negative = cytotoxicity: at 46.1 µM (top of the series)
Summary of the method: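 KB-V1, DMEM (no phenol red) + 10% FBS; cpd pin-transferred, titration series; 72 h, 37 degrees C; CellTiter-Glo, luminescence. Data normalized, curve-fit.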
% is scaled to controls: 0 for no effect and ±100 for the full control effect; potency is read from the fitted curve at half-maximal effect.

SMILES | Potency | activity change, negative = cytotoxicity
O=C(Nc1ccccn1)C12CC3CC(C1)CC(C(=O)Nc1ccccn1)(C3)C2 | inconclusive: 11.6 µM [cytotoxic, partial curve] | –
COc1ccc2cc(/C=N/NC(=O)c3ccc(CN(c4cccc(Cl)c4Cl)S(C)(=O)=O)cc3)c(Cl)nc2c1 | inconclusive: 8.2 µM [cytotoxic, partial curve] | –
O=C1N/C(=N\N=C\c2ccco2)SC1Cc1ccccc1[N+](=O)[O-] (configuration not stated) | inconclusive: 23.1 µM [cytotoxic, partial curve] | –
CCN(C(=O)CSc1nc2ccccc2n1Cc1ccc(F)cc1Cl)c1ccccc1 | inconclusive: 20.6 µM [cytotoxic, single point] | –
Nc1cc(=O)[nH]c(SCC(=O)N2CCCC2)n1 | inconclusive: 29.1 µM [rising, single point] | –
COc1ccc(C(=O)NCCNc2nc3cc(C)cc(C)c3cc2C#N)cc1 | inconclusive: 7.31 µM [cytotoxic, partial curve, poor fit] | –
COc1ccc(NC(=O)CN(C)C(=O)C(NC(=O)c2ccco2)C(C)C)cc1 (configuration not stated) | inactive | –
Cc1c(-c2ccccc2)sc2nc[nH]c(=S)c12 | active: 11.6 µM | –
NC(=O)c1cccc(N=Cc2cc(Cl)cc(Cl)c2O)c1 | inconclusive: 32.6 µM [rising, single point] | –
COc1cc(CN2CCC(n3nccc3NC(=O)c3ccccc3OC)CC2)ccc1F | inconclusive: 4.11 µM [cytotoxic, partial curve] | –
COc1cc(/C=N/NC(=O)C(=O)/C=C2\NC3(CCCC3)Cc3ccccc32)ccc1O | inconclusive: 16.4 µM [cytotoxic, partial curve] | –
COc1ccc(C)cc1N(C)C(=O)CCc1nc(-c2ccccc2F)no1 | inactive | –
CCOC(=O)c1c(C)[nH]c(C)c1S(=O)(=O)N1CCC(C(=O)NCc2ccccc2Cl)CC1 | inactive | –
CC(C)(C)c1ccc(N/N=C(\C#N)S(=O)(=O)C(C)(C)C)cc1 | inconclusive: 29.1 µM [cytotoxic, single point] | –
Cc1cccc(S(=O)(=O)c2c(N)n(Cc3ccco3)c3nc4ccccc4nc23)c1 | active: 18.4 µM | –
CCOC(=O)c1ccccc1N=N/C(C(C)=O)=C(/C)O | inconclusive: 23.1 µM [cytotoxic, single point] | –
COc1cc(C(=O)Nc2c(C)cc(C)cc2C)c(Br)c(OC)c1OC | inconclusive: 8.2 µM [cytotoxic, partial curve] | –
C=C(C)C1CCC(C)=C1COC(=O)Nc1ccccc1 (configuration not stated) | inconclusive: 32.6 µM [cytotoxic, single point] | –
O=C(c1cccc(C(F)(F)F)c1)N1CCC(O)(CS(=O)(=O)Cc2ccccc2Cl)CC1 | active: 16.4 µM | –
CCOc1ccc(NC(=O)CN(C)C(=O)CCc2nc3ccccc3c(=O)[nH]2)cc1OCC | inconclusive: 8.2 µM [rising, partial curve, poor fit] | –
Cc1ccc2cc(CCNS(=O)(=O)c3ccc(Cl)cc3)c(=O)[nH]c2c1C | inactive | –
O=C(/C=C/c1ccc(Cl)cc1Cl)c1cccnc1 | inconclusive: 29.1 µM [cytotoxic, single point] | –
COc1ccc(C)cc1NC(=O)Nc1cccc(-c2noc(C)n2)c1 | inconclusive: 25.9 µM [cytotoxic, partial curve, poor fit] | –
C=CCN1C(=O)/C(=C/c2ccc(OC)cc2)S/C1=N/c1nccs1 | inactive | –

Quoted at random: 2 entries already listed.
SMILES | Potency | activity change, negative = cytotoxicity
O=C(Nc1ccccn1)C12CC3CC(C1)CC(C(=O)Nc1ccccn1)(C3)C2 | inconclusive: 11.6 µM [cytotoxic, partial curve] | –
NC(=O)c1cccc(N=Cc2cc(Cl)cc(Cl)c2O)c1 | inconclusive: 32.6 µM [rising, single point] | –

Further results

SMILES | Potency | activity change, negative = cytotoxicity
CCOC(=O)C1=CNS(=O)(=O)NC1c1cccc(O)c1 (configuration not stated) | inconclusive: 29.1 µM [rising, single point] | –
S=c1[nH]nc(-c2ccco2)n1C1CCCCC1 | inconclusive: 1.03 µM [rising, full curve] | –
CCOC(=O)c1sc(NC(=O)c2ccco2)nc1C | inconclusive: 3.66 µM [cytotoxic, partial curve, poor fit] | –
COC(=O)c1c(-n2c(C)cc(C=O)c2C)sc2c1CCCC2 | inconclusive: 14.6 µM [cytotoxic, partial curve] | –
O=S(=O)(Nc1ccc(F)cc1)c1ccc(S(=O)(=O)N2CCOCC2)cc1 | inconclusive: 29.1 µM [cytotoxic, single point] | –
COc1ccc(N(C(=O)C(C)C)S(=O)(=O)c2cccc3cccnc23)cc1 | inconclusive: 18.4 µM [cytotoxic, partial curve] | –
COc1cc2nnn(-c3ccncc3)c2cc1OC | inactive | –
O=C(NCC1OCCc2ccccc21)c1cc(COc2c(F)cccc2F)on1 (configuration not stated) | inactive | –
COc1ccc(C(=O)Nc2nc(-c3nnn(-c4ccc(C(C)C)cc4)c3C)ns2)cc1 | – | inconclusive: 31.1%
O=C(CCC(=O)NCc1ccccc1)NCc1ccccc1 | inactive | –
CN(Cc1ccccc1)C(=O)c1ccc(NC(=O)Cc2ccc(NC(=O)C3CCN(C(=O)C4CCCC4)CC3)cc2)cc1 | inactive | –
Cc1nc(-c2cc(C#N)c(=O)[nH]c2C)cs1 | active: 4.61 µM | –
Cc1ccc(C(O)c2ncc(-c3ccc(F)cc3)[nH]2)c(C)c1 (configuration not stated) | inactive | –
CC1CCCCN1CCNC(=O)C1CCCN(S(=O)(=O)c2cccc3nsnc23)C1 (configuration not stated) | inconclusive: 25.9 µM [rising, partial curve] | –
Cc1nc2cc(NC(=O)c3ccc(S(=O)(=O)N(C)c4ccccc4)cc3)ccc2o1 | inconclusive: 2.91 µM [cytotoxic, full curve] | –
CCCOc1ccc(CNC(=O)c2[nH]c3cc(OC)ccc3c2Sc2ccccc2)cc1 | inactive | –
COc1ccccc1-c1sc2cc3c(cc2c1C#Cc1ccccn1)OCO3 | inactive | –
O=C(COc1ccccc1F)Nc1cc(S(=O)(=O)Nc2cccc(Cl)c2)ccc1O | inconclusive: 29.1 µM [rising, single point] | –
FC(F)(F)c1cccc(Cc2noc(CN3CCCCC3c3ccccn3)n2)c1 (configuration not stated) | inconclusive: 23.1 µM [cytotoxic, single point] | –
O=C(NCc1cccnc1)c1ccc(Cl)c(S(=O)(=O)N2CCOCC2)c1 | – | inconclusive: 38.2%
CC(=O)NCCNc1nc2cc(-c3cnn(CCC(C)C)c3)sc2c(=O)n1C | inactive | –
COc1ccc(Nc2ncnc3c2nc2n3CCCCC2)cc1 | inactive | –
Cc1ccc(C)c(N2CCN(C(=O)CCCOc3cc(=O)n(C)c4ccccc34)CC2)c1 | active: 8.2 µM | –
CCOc1ccccc1-c1ccc(C(=O)NCc2ccccc2)o1 | inconclusive: 13 µM [rising, partial curve, poor fit] | –

SMILES | Potency | activity change, negative = cytotoxicity
CCN(c1ccccc1)S(=O)(=O)c1cc(C(=O)Oc2ccc3c(C)cc(=O)oc3c2)ccc1C | inconclusive: 18.4 µM [cytotoxic, single point] | –
CCCOc1ccc(C(=O)NCC(c2ccco2)N(C)C)cc1 (configuration not stated) | inconclusive: 5.8 µM [cytotoxic, partial curve, poor fit] | –
CC(OC(=O)C1CSC2(C)CCC(=O)N12)C(=O)Nc1cccc(C#N)c1 (configuration not stated) | inactive | –
O=C(COc1ccccc1)Nc1cccc(-c2nnc(-c3ccccc3)o2)c1 | inconclusive: 18.4 µM [cytotoxic, single point] | –
O=C(OCC(=O)N1CCCCCC1)c1ccc(Cl)c(S(=O)(=O)N2CCCC2)c1 | inactive | –
CC(=O)Nc1ccc2c(c1)C(=O)c1cccc(C(=O)O)c1-2 | inactive | –
CC(C)COc1ccc(C(=O)Nc2sc3c(c2C(=O)O)CC(C)(C)OC3)cc1 | inactive | –
CCOC(=O)c1cnn(-c2nc3c(C)cccc3s2)c1C(F)(F)F | inactive | –
CN(C)S(=O)(=O)N1CCC(Oc2cccc(C(=O)N3CCSCC3)c2)CC1 | inconclusive: 13 µM [cytotoxic, partial curve] | –
CN1CC=C2C(C#N)=C(N)C(C#N)(C#N)C(c3cccc(Cl)c3Cl)C2C1 (configuration not stated) | active: 20.6 µM | –
Cc1noc(C)c1NC(=O)N(C)C[C@H]1OCc2cnnn2CCCC(=O)N([C@H](C)CO)C[C@H]1C | inconclusive: 14.6 µM [cytotoxic, partial curve] | –
NC(c1ccccc1)c1csc(Nc2ccccn2)n1 (configuration not stated) | inactive | –
CCOC(=O)c1csc(NC(=O)c2cc(OC)c(OC)c(OC)c2)n1 | inconclusive: 29.1 µM [cytotoxic, single point] | –
CCC(=O)N1CCc2cc(S(=O)(=O)NC(Cc3ccccc3)C(=O)Nc3ccccc3C)ccc21 (configuration not stated) | inactive | –
Cc1ccc2[nH]c(=S)cc(C)c2c1 | inconclusive: 29.1 µM [cytotoxic, single point] | –
O=C(NCC1COc2ccccc2O1)c1ccc(F)c(S(=O)(=O)N2CCOCC2)c1 (configuration not stated) | inconclusive: 16.4 µM [cytotoxic, partial curve] | –
COc1ccc(OC)c(-c2cc(C(=O)NCCN3CCOCC3)no2)c1 | inconclusive: 11.6 µM [cytotoxic, partial curve] | –
CCOC(=O)c1c(NC(=O)CSc2nnnn2C)sc(C)c1-c1ccc(C)cc1 | active: 13 µM | –
CCOC(=O)CSc1nnc(C)c(C)n1 | inactive | –
Cc1cccc(C)c1NC(=O)CN(C)C(=O)Cn1c(=O)cnc2ccccc21 | inconclusive: 20.6 µM [rising, single point] | –
CC(=O)c1cccc(NS(=O)(=O)c2cc3c(cc2C)n(C)c(=O)c(=O)n3C)c1 | inconclusive: 29.1 µM [rising, single point] | –
COc1cc(C(c2c(C)[nH][nH]c2=O)c2c(C)[nH][nH]c2=O)ccc1OC(=O)c1cccc([N+](=O)[O-])c1 | inconclusive: 32.6 µM [rising, single point] | –
O=C(O)c1cc2c(N3CCC(Cc4ccccc4)CC3)ncnc2s1 | inactive | –
CCCCNC(=S)Nc1ccc(Oc2ccccc2)cc1 | inactive | –

Source: PubChem BioAssay AID1347076 (National Center for Advancing Translational Sciences (NCATS), 2019)
